“Also recorded” adds a separate entry of the source. Not every detail of the peptide structures is certain; ends, links or a residue may be inferred. Some of these results come from one statement about several compounds together. Positions of bridges follow the written chain, without caps; N, C: chain ends. Non-standard residues stand in square brackets, D forms with d. Residues, ends and D or L forms follow the SMILES beside them. Triazole bridges read from a SMILES are 1,4-linked. Dap(N3) = [N-]=[N+]=NC[C@H](N)C(=O)O; Hpra = C#CCC[C@H](N)C(=O)O
How the values were obtained:
[1] = test system: human immunoglobulin G (IgG) antibodies; test: Relative binding activity to human IgG antibodies by surface plasmon resonance on immobilized sensor chip; settings: for Relative binding activity: SPR (Biacore 3000, CM5 chip), 3,000 nM human IgG for 10 minutes at 25° C., relative to the cyclic peptide of Comparative Example 1 regarded as 1
Description: A commercially available CM5 (carboxymethyl dextran introduction-type, manufactured by GE Healthcare) sensor chip was set in Biacore 3000 (Biacore is a registered trademark) as a surface plasmon resonance device manufactured by GE Healthcare, a 4-(2-hydroxyethyl)-1-piperazineethanesulfonic acid (HEPES) buffer solution (20 mM HEPES-HCl, 150 mM NaCl, pH 7.4) for surface plasmon resonance (SPR) was stabilized at a flow rate of 10 μL/min, and 70 μL of an aqueous mixed solution of 0.2 M 1-(3-Dimethylaminopropyl)-3-ethylcarbodiimide (EDC) and […] of N-Hydroxysuccinimide (NHS) were injected thereinto. Thereafter, 100 μL of a sample solution of the cyclic peptide 1, which was diluted with a HEPES buffer solution at 0.2 g/L and treated with a polytetrafluoroethylene (PTFE) filter (manufactured by Advantec MFS, Inc.) having a diameter of 0.20 μm, was supplied to the sensor chip. Then, a blocking treatment was then performed on the sample solution by using an aqueous ethanolamine solution, and the sensor chip was washed with an aqueous sodium hydroxide solution, thereby performing immobilization. Likewise, 70 μL of an aqueous mixed solution of 0.2 M EDC and 0.04 M NHS was added to the same sensor chip without immobilizing the sample in another flow channel of the sensor chip, and then the blocking treatment and the washing treatment were performed. Hereinafter, the obtained immobilized sensor chip will be referred to as “immobilized sensor chip A”.
At 25° C., 3,000 nM of human immunoglobulin G (IgG) antibodies were added for 10 minutes to the immobilized sensor chip A prepared in (2) described above. Then, the antibody binding amount in the flow channel in which the cyclic peptide was immobilized immediately after the addition and in the flow channel in which the cyclic peptide was not immobilized was measured. From the difference in the antibody binding amount between the flow channel in which the cyclic peptide was immobilized and the flow channel in which the cyclic peptide was not immobilized and the amount of the immobilized cyclic peptide, the activity of the cyclic peptide was calculated. Furthermore, by regarding the activity of a cyclic peptide 5 in Comparative Example 1 as 1, the relative binding activity with respect to the human IgG antibodies was calculated.

[2] = Chemical resistance: rate of change in antibody binding amount of immobilized support before and after alkali treatment; assay type: physicochemical; settings: for Chemical resistance (rate of change in the binding amount): peptide-immobilized HiTrap support, human IgG binding amount at 10% leak, before and after 0.05 M aqueous NaOH for 6 hours at 25° C.
Description: 1 mL of HiTrap NHS-activated HP Columns (coupling columns for ligand immobilization, manufactured by GE Healthcare) (HITRAP is a registered trademark) was reacted with 1 mL of 10 mg/mL cyclic peptide solution, which was prepared by dissolving the cyclic peptide 1 in an immobilization buffer (10% DMSO in 200 mM NaHCO3, 500 mM NaCl, pH 8.3), for 1 hour at 25° C. The reaction product was blocked by an aqueous ethanolamine solution and washed, thereby obtaining a cyclic peptide 1-immobilized support. Hereinafter, the obtained immobilized support will be referred to as “immobilized support A”.
The immobilized support A prepared in (4) described above was connected to a chromatography system AKTA avant 25 (manufactured by GE Healthcare) (AKTAAVANT is a registered trademark), and the antibody binding amount was measured. The columns were equilibrated using an equilibration solution (20 mM phosphoric acid buffer, 150 mM NaCl, pH 7.4), and then 20 mL of a 5 mg/mL human IgG antibody standard buffer solution (20 mM phosphoric acid buffer, 150 mM NaCl, pH 7.4) was injected thereinto at a flow rate of 0.21 mL/min. Thereafter, the columns were washed with 5 mL of a postloading wash solution (20 mM phosphoric acid buffer, 150 mM NaCl, pH 7.4) caused to flow at the same flow rate and then washed with 5 mL of a pre-elution wash solution (20 mM phosphoric acid buffer, 1 M NaCl, pH 7.4) at the same flow rate. Then, 5 mL of an elution solution (100 mM citric acid buffer, pH 3.2) was caused to flow at the same flow rate. Subsequently, 5 mL of a cleaning in place (CIP) solution (0.1 M sodium hydroxide) was caused to flow at the same flow rate, and then 5 mL of a reequilibration solution (20 mM phosphoric acid buffer, 150 mM NaCl, pH 7.4) was caused to flow at the same flow rate. At this time, by using an immunoglobulin G (IgG) elution peak obtained by monitoring absorbance at 280 nm, the amount of antibodies binding to the support until 10% of the antibody stock solution leaked out of the support was measured as the antibody binding amount. Then, the immobilized support A was filled with a 0.05 M aqueous NaOH solution for 6 hours at 25° C. and left to stand, the antibody binding amount of the support was then measured in the same manner, and a rate of change in the binding amount was calculated from the antibody binding amount before and after the alkali treatment.

| Molecule | Relative binding activity [1] | antibody binding properties (in words) ([1]; summary wording of the relative binding activity evaluation) | Chemical resistance (rate of change in the binding amount) [2] | chemical resistance (in words) ([2]; summary wording of the chemical resistance evaluation, listed as Comparative Example 1) |
| --- | --- | --- | --- | --- |
| CC(C)C[C@@H]1NC(=O)[C@H](CCC(=O)O)NC(=O)CNC(=O)[C@H](CCCNC(=N)N)NC(=O)[C@H](Cc2c[nH]cn2)NC(=O)[C@H](Cc2ccc(O)cc2)NC(=O)[C@H](C)NC(=O)[C@@H](NC(=O)[C@@H](N)CC(=O)O)CCC(=O)NCCCC[C@@H](C(=O)N[C@H](C(=O)N[C@@H](CCCCN)C(=O)N[C@@H](CCCCN)C(=O)O)[C@@H](C)O)NC(=O)[C@H](Cc2c[nH]c3ccccc23)NC(=O)[C@H](C(C)C)NC1=O [Cyclic peptide 17, Asp-[Glu]-Ala-Tyr-His-Arg-Gly-Glu-Leu-Val-Trp-[Lys]-Thr-Lys-Lys, reference compound] (HELM PEPTIDE1{D.E.A.Y.H.R.G.E.L.V.W.K.T.K.K}$PEPTIDE1,PEPTIDE1,2:R3-12:R3$$$V2.0; N-terminus and C-terminus assumed) | E (The relative binding activity was equal to or lower than 100% of the binding activity of the cyclic peptide 5) | poor | B (The rate of change in the binding amount was higher than 80% and equal to or lower than 90%) | excellent; also recorded: sufficient |
| Asp-[Abu(N3)]-Ala-Tyr-His-Leu-Gly-Glu-Leu-Val-Trp-[Pra]-Thr-Lys-Lys [Cyclic peptide 7, [Abu(N3)] and [Pra] cross-linked through a triazole bond] | – | – | B or a higher grade | – |
| Asp-[Lys(N3)]-Ala-Tyr-His-Arg-Gly-Glu-Leu-Val-Trp-[Bpg]-Thr-Lys-Lys [Cyclic peptide 1, [Lys(N3)] and [Bpg] cross-linked through a triazole bond] | C or a higher grade | – | B or a higher grade | – |
| CC(C)C[C@@H]1NC(=O)[C@H](Cc2c[nH]cn2)NC(=O)[C@H](Cc2ccc(O)cc2)NC(=O)[C@H](C)NC(=O)[C@@H](NC(=O)[C@@H](N)CC(=O)O)CCc2cn(nn2)C[C@@H](C(=O)N[C@H](C(=O)N[C@@H](CCCCN)C(=O)N[C@@H](CCCCN)C(=O)O)[C@@H](C)O)NC(=O)[C@H](Cc2c[nH]c3ccccc23)NC(=O)[C@H](C(C)C)NC(=O)[C@H](CC(C)C)NC(=O)[C@H](CCC(=O)O)NC(=O)CNC1=O [Cyclic peptide 4, Asp-[Hpg]-Ala-Tyr-His-Leu-Gly-Glu-Leu-Val-Trp-[Ala(N3)]-Thr-Lys-Lys] (H-D[Hpra]AYHLGELVW[Dap(N3)]TKK-OH; triazole 2-12; N-terminus and C-terminus assumed) | A (The relative binding activity was higher than 800% of the binding activity of the cyclic peptide 5) | – | A (The rate of change in the binding amount was higher than 90%) | – |
| Asp-[Lys(N3)]-Ala-Tyr-His-Leu-Gly-Glu-Leu-Val-Trp-[Hpg]-Thr-Lys-Lys [Cyclic peptide 8, [Lys(N3)] and [Hpg] cross-linked through a triazole bond] | – | – | B or a higher grade | – |
| Asp-[Hpg]-Ala-Tyr-His-Leu-Gly-Glu-Leu-Val-Trp-[Nva(N3)]-Thr-Lys-Lys [Cyclic peptide 15, [Hpg] and [Nva(N3)] cross-linked through a triazole bond] | – | – | B or a higher grade | – |
| Asp-[Abu(N3)]-Ala-Tyr-His-Arg-Gly-Glu-Leu-Val-Trp-[Pra]-Thr-Lys-Lys [Cyclic peptide 6, [Abu(N3)] and [Pra] cross-linked through a triazole bond] | C or a higher grade | – | B or a higher grade | – |
| Asp-[Abu(N3)]-Ala-Tyr-His-Leu-Gly-Glu-Leu-Val-Trp-[Bpg]-Thr-Lys-Lys [Cyclic peptide 13, [Abu(N3)] and [Bpg] cross-linked through a triazole bond] | – | – | B or a higher grade | – |

Reference: patent US11066446B2, “Cyclic peptide, affinity chromatography support, labeled antibody, antibody drug conjugate, and pharmaceutical preparation” (FUJIFILM Corporation, priority 2016, dated 2021)
